These are yes or no findings as the source states them, for the method shown. In cells and extracts the contact can be indirect. Some entries that bind do so weakly or less than the wild type.
Experiments:
[1] = target: Methyl CpG binding domain protein 4 (MBD4) (mouse (endogenous in CH12.F3)) (UniProt Q9Z2D7); test: co-IP; nuclear extracts (100 µg) of CH12.F3 cells induced with CIT for 24 hours; IP with anti-MLH1 or anti-MBD4 Abs (anti-GFP as control) and protein-A beads, 4°C; DTT omitted, final NaCl 100 mM; Western blot
[2] = target: MutL homologue 1 (MLH1) (mouse (endogenous in CH12.F3)) (UniProt Q9JK91); test: as above

Protein sequences, listed by entry. Tags and fused reporters are not part of them.
UniProt Q9Z2D7: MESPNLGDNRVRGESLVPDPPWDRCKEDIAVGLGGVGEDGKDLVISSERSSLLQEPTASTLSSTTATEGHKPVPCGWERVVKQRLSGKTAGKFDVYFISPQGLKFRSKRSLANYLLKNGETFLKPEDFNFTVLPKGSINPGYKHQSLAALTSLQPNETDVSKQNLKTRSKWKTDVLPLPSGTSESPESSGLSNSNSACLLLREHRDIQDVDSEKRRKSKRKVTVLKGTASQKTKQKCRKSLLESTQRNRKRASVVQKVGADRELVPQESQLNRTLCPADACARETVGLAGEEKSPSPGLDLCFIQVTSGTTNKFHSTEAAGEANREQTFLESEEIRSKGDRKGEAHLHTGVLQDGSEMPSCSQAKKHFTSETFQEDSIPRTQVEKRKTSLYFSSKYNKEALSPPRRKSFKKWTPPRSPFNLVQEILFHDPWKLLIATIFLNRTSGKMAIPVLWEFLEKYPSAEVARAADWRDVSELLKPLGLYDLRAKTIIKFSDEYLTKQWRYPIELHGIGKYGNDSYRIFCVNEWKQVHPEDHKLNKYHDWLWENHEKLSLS
UniProt Q9JK91: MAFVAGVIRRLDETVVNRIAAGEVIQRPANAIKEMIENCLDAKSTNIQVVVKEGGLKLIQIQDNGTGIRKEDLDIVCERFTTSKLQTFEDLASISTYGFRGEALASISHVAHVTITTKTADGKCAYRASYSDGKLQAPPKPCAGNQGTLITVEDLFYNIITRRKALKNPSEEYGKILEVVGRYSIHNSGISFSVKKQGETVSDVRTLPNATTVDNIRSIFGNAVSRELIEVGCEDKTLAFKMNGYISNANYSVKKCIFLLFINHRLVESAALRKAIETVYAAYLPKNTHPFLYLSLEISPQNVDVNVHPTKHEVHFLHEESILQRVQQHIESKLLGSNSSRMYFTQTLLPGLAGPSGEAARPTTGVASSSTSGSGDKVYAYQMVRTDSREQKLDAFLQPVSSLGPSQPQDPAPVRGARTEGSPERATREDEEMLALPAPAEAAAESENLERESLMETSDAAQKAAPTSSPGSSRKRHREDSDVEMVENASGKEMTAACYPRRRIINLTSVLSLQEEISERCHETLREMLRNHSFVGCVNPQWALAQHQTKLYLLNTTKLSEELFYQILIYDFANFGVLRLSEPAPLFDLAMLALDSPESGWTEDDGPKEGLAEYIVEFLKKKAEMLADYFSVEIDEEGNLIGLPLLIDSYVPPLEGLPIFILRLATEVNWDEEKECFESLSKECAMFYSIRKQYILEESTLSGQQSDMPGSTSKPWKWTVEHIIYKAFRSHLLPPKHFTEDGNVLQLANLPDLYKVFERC

binding [1]: binds | binding [2]: binds
B1: postmeiotic segregation increased 2 (PMS2) (protein, UniProt P54279 1-859)
chain: MEQTEGVSTECAKAIKPIDGKSVHQICSGQVVLSLSTAVKELIENSVDAGATTIDLRLKDYGVDLIEVSDNGCGVEEENFEGLALKHHTSKIQEFADLTQVETFGFRGEALSSLCALSDVTISTCHGSASVGTRLVFDHNGKITQKTPYPRPKGTTVSVQHLFYTLPVRYKEFQRNIKKEYAKMVQVLQAYCIISAGVRVSCTNQLGQGKRQPVVCTSGSSGMKENIGSVFGQKQLQSLIPFVQLPPSDAVCEEYGLSTSRTPQNLFYVSGFISQCTHGAGRSATDRQFFFINQRPCDPAKVSKLVNEVYHMYNRHQYPFVVLNVSVDSECVDINVTPDKRQILLQEEKLLLAVLKTSLIGMFDSDANKLNVNQQPLLDVEGNLVKLHTAELEKPVPGKQDNSPSLKSTADEKRVASISRLREAFSLHPTKEIKSRGPETAELTRSFPSEKRGVLSSYPSDVISYRGLRGSQDKLVSPTDSPGDCMDREKIEKDSGLSSTSAGSEEGFSTPEVASSFSSDYNVSSPEDRPSQETINCGDLDCRPPGTGQSLKPEDHGYQCKALPLARLSPTNAKRFKTEERPSNVNISQRLPGPQSTSAAEVDVAIKMNKRIVLLEFSLSSLAKRMKQLQHLKAQNKHELSYRKFRAKICPGENQAAEDELRKEISKSMFAEMEILGQFNLGFIVTKLKEDLFLVDQHAADEKYNFEMLQQHTVLQAQRLITPQTLNLTAVNEAVLIENLEIFRKNGFDFVIDEDAPVTERAKLISLPTSKNWTFGPQDIDELIFMLSDSPGVMCRPSRVRQMFASRACRKSVMIGTALNASEMKKLITHMGEMDHPWNCPHGRPTMRHVANLDVISQN

From paper PMC3812156
